# According to PMC13476778:
# Sequences of proteins named here, by UniProt entry; tags and fusion partners are left off.
# UniProt P11940: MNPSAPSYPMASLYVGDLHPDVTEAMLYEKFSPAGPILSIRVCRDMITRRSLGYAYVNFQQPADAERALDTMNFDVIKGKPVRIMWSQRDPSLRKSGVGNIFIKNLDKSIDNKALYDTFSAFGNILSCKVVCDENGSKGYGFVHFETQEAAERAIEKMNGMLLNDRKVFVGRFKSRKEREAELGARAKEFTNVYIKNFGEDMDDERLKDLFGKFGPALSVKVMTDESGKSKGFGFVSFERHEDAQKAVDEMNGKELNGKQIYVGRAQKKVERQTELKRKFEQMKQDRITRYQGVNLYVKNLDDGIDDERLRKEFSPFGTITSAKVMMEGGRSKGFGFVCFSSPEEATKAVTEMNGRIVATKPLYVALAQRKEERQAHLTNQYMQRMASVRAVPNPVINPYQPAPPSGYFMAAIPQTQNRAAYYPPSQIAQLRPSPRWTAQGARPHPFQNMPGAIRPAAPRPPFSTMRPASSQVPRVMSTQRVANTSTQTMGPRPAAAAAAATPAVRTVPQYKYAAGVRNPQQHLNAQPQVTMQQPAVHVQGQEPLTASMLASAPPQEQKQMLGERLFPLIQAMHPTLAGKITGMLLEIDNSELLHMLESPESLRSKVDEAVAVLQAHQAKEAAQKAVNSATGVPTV
# UniProt Q6NZY4: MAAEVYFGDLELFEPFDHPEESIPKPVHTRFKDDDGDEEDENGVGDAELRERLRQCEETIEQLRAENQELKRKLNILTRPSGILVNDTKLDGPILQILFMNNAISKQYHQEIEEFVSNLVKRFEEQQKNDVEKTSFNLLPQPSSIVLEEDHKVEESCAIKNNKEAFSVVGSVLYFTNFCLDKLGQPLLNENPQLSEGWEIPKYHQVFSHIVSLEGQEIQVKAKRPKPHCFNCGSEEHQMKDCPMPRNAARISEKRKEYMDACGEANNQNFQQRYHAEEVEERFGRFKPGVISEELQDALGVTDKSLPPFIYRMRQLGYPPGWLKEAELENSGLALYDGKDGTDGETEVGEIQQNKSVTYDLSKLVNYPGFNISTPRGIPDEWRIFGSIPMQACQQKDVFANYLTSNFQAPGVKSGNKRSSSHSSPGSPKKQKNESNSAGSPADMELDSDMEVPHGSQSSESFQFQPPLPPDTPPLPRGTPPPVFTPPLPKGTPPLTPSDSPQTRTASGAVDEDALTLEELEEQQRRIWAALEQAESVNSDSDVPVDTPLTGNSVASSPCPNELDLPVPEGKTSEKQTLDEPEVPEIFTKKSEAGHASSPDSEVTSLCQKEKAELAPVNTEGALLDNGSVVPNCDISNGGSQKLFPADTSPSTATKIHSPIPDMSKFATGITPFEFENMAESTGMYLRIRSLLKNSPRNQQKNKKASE
# UniProt O75400: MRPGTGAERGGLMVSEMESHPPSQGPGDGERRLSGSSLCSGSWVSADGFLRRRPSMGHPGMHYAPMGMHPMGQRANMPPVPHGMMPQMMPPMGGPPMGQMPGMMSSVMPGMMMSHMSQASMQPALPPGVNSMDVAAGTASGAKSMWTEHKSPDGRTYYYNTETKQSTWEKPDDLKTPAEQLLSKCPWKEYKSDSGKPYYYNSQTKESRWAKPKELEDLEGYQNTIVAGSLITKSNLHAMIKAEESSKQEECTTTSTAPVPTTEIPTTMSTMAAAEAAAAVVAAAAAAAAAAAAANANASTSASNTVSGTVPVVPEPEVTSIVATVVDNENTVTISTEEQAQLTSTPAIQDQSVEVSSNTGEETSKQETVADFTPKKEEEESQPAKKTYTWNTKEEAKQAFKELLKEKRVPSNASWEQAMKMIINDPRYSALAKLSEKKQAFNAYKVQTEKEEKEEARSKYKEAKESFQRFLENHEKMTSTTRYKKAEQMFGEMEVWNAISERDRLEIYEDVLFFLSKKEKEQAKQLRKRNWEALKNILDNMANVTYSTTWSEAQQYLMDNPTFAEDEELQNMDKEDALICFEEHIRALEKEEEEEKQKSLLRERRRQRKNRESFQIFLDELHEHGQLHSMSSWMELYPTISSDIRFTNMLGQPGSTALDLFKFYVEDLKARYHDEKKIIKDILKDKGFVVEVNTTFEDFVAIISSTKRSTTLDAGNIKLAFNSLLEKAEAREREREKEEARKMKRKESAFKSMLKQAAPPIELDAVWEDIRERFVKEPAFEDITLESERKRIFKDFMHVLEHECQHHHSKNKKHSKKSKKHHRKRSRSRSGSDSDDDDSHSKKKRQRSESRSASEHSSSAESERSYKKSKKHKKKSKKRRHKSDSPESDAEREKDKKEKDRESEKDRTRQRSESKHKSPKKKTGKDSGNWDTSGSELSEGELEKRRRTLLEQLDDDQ
# T1: V5-tagged full-length ZC3H18 (Z18^fl) (human) (UniProt Q86VM9)
# T1 sequence: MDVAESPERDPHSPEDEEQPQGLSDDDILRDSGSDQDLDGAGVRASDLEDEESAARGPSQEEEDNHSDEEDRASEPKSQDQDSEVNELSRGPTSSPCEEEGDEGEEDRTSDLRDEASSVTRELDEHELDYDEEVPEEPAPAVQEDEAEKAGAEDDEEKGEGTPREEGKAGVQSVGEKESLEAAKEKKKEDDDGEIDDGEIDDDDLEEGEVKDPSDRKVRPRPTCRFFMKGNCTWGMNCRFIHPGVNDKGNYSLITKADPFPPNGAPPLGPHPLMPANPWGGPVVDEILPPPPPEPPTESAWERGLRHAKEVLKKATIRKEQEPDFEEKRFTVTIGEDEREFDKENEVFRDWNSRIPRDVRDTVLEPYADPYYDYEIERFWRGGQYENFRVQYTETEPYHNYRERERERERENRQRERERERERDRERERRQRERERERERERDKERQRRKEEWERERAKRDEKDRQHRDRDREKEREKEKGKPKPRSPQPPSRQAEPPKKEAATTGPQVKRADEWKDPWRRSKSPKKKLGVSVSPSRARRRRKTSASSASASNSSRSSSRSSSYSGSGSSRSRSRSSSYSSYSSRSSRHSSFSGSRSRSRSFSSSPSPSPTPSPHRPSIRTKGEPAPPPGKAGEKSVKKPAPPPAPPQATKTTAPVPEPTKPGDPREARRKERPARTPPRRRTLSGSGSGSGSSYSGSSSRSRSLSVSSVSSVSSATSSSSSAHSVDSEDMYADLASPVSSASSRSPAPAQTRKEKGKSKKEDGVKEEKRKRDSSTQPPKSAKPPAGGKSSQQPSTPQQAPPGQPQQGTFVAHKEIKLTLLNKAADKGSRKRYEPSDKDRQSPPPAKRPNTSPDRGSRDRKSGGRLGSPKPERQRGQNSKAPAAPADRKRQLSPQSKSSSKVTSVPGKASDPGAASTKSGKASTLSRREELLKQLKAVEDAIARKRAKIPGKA
# Key:
# [1] = biological target: T1, V5-tagged full-length ZC3H18 (Z18^fl) (human); assay: affinity purification with mass spectrometry; V5-tagged Z18^fl or Z18^trunc transiently expressed in A375 cells; nuclear protein extracted under native conditions; anti-V5 on protein G beads; in triplicate, with or without RNase A/T1 (100 ug/mL); Z18^fl and Z18^trunc compared in the +RNase …
# [2] = biological target: T1, V5-tagged full-length ZC3H18 (Z18^fl) (human); assay: as above; remark: listed apart in the source
Molecule,binding [1],binding [2]
PABPC1 (from UniProt P11940 1-636),binds,–
PRPF4B (human (endogenous in A375)),binds,–
ZCCHC8 (from UniProt Q6NZY4 1-707),binds,–
"SRRT (protein, UniProt Q9BXP5 1-876) MGDSDDEYDRRRRDKFRRERSDYDRSRERDERRRGDDWNDREWDRGRERRSRGEYRDYDRNRRERFSPPRHELSPPQKRMRRDWDEHSSDPYHSGYEMPYAGGGGGPTYGPPQPWGHPDVHIMQHHVLPIQARLGSIAEIDLGVPPPVMKTFKEFLLSLDDSVDETEAVKRYNDYKLDFRRQQMQDFFLAHKDEEWFRSKYHPDEVGKRRQEARGALQNRLRVFLSLMETGWFDNLLLDIDKADAIVKMLDAAVIKMEGGTENDLRILEQEEEEEQAGKPGEPSKKEEGRAGAGLGDGERKTNDKDEKKEDGKQAENDSSNDDKTKKSEGDGDKEEKKEDSEKEAKKSSKKRNRKHSGDDSFDEGSVSESESESESGQAEEEKEEAEEALKEKEKPKEEEWEKPKDAAGLECKPRPLHKTCSLFMRNIAPNISRAEIISLCKRYPGFMRVALSEPQPERRFFRRGWVTFDRSVNIKEICWNLQNIRLRECELSPGVNRDLTRRVRNINGITQHKQIVRNDIKLAAKLIHTLDDRTQLWASEPGTPPLPTSLPSQNPILKNITDYLIEEVSAEEEELLGSSGGAPPEEPPKEGNPAEINVERDEKLIKVLDKLLLYLRIVHSLDYYNTCEYPNEDEMPNRCGIIHVRGPMPPNRISHGEVLEWQKTFEEKLTPLLSVRESLSEEEAQKMGRKDPEQEVEKFVTSNTQELGKDKWLCPLSGKKFKGPEFVRKHIFNKHAEKIEEVKKEVAFFNNFLTDAKRPALPEIKPAQPPGPAQILPPGLTPGLPYPHQTPQGLMPYGQPRPPILGYGAGAVRPAVPTGGPPYPHAPYGAGRGNYDAFRGQGGYPGKPRNRMVRGDPRAIVEYRDLDAPDDVDFF",–,binds

# Next, values leading:
binding [1],binding [2],Molecule
binds,–,PRPF40A (from UniProt O75400 1-957)
–,binds,"FNBP4 (protein, UniProt Q8N3X1 1-1017) MGKKSRAVPGRRPILQLSPPGPRGSTPGRDPEPEPDTEPDSTAAVPSQPAPSAATTTTTAVTAAAASDDSPSEDEQEAVQEVPRVVQNPPKPVMTTRPTAVKATGGLCLLGAYADSDDDDNDVSEKLAQSKETNGNQSTDIDSTLANFLAEIDAITAPQPAAPVGASAPPPTPPRPEPKEAATSTLSSSTSNGTDSTQTSGWQYDTQCSLAGVGIEMGDWQEVWDENTGCYYYWNTQTNEVTWELPQYLATQVQGLQHYQPSSVPGAETSFVVNTDIYSKEKTISVSSSKSGPVIAKREVKKEVNEGIQALSNSEEEKKGVAASLLAPLLPEGIKEEEERWRRKVICKEEPVSEVKETSTTVEEATTIVKPQEIMLDNIEDPSQEDLCSVVQSGESEEEEEQDTLELELVLERKKAELRALEEGDGSVSGSSPRSDISQPASQDGMRRLMSKRGKWKMFVRATSPESTSRSSSKTGRDTPENGETAIGAENSEKIDENSDKEMEVEESPEKIKVQTTPKVEEEQDLKFQIGELANTLTSKFEFLGINRQSISNFHVLLLQTETRIADWREGALNGNYLKRKLQDAAEQLKQYEINATPKGWSCHWDRDHRRYFYVNEQSGESQWEFPDGEEEEEESQAQENRDETLAKQTLKDKTGTDSNSTESSETSTGSLCKESFSGQVSSSSLMPLTPFWTLLQSNVPVLQPPLPLEMPPPPPPPPESPPPPPPPPPPAEDGEIQEVEMEDEGSEEPPAPGTEEDTPLKPSAQTTVVTSQSSVDSTISSSSSTKGIKRKATEISTAVVQRSATIGSSPVLYSQSAIATGHQAAGIGNQATGIGHQTIPVSLPAAGMGHQARGMSLQSNYLGLAAAPAIMSYAECSVPIGVTAPSLQPVQARGAVPTATIIEPPPPPPPPPPPPPPAPKMPPPEKTKKGRKDKAKKSKTKMPSLVKKWQSIQRELDEEDNSSSSEEDRESTAQKRIEEWKQQQLVSGMAERNANFEALPEDWRARLKRRKMAPNT"

# Like-named read-outs stand apart in the source and are kept apart here. Results are given in words; binding and its absence hold for the method and conditions named. In cells and extracts the contact can be indirect. These calls come from enrichment with a bait or labelling near it, and not all partners need be listed. Tags and fused reporters may be left off the sequences shown.
